PubChem BioAssay AID1159578 – Peter MacCallum Cancer Centre – 2015

Screen: 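siRNA pools altering how lymphatic endothelial cells close a scratch wound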 (primary screen)
System: human lymphatic endothelial cells
Reagent: siRNA pool against human genes, 40 nM
Duration: 48 h after transfection
Measurement: 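High-content imaging of dye-stained cells in a scratch assay measures filled wound area and nuclei per well; duplicate means given as ratio to mock and robust z-score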
Direction: migration robust z-score: higher = faster migration into the scratch; migration relative to mock: higher = more scratch area covered than mock; nuclei per well: higher = more cells in the well
Active means: 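Pools averaging fewer than 3300 nuclei are never called; remaining pools count as changed when migration robust z lies outside -2 to 2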
Meaning of the calls: active = migration changed; inactive = no migration change, or too few cells
Here is an unselected part of about 18,000 reagents tested. Of all reagents, about 1,030 (5.7%) are marked active. 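Inactive calls also include pools with fewer than 3300 nuclei, whose migration was not assessed.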 Raw values vary from plate to plate and are shown uncorrected.

Gene	migration robust z-score	migration class with cell-count check	migration relative to mock	nuclei per well, duplicate mean	Call
NUP62CL	0.56	migration z between -2 and 2; enough cells	1.03	6356	inactive
SLC23A2	-0.66	migration z between -2 and 2; enough cells	0.72	7052	inactive
STOML3	0.41	migration z between -2 and 2; enough cells	0.99	5266	inactive
CIP2A	-1.07	migration z between -2 and 2; enough cells	0.61	5719	inactive
VRK2	0.03	migration z between -2 and 2; enough cells	0.81	5254	inactive
GOLGA6A	0.34	migration z between -2 and 2; enough cells	0.98	6500	inactive
SYN3	-0.36	migration z between -2 and 2; enough cells	0.8	5580	inactive
ZNF236	0.37	migration z between -2 and 2; enough cells	0.98	5781	inactive
KCNJ12	0.18	migration z between -2 and 2; enough cells	0.84	5285	inactive
KCNMB2	-0.16	migration z between -2 and 2; enough cells	0.78	4798	inactive
GJA10	-1.64	migration z between -2 and 2; enough cells	0.46	4708	inactive
GRIA2	1.92	migration z between -2 and 2; enough cells	1.17	6495	inactive
FADS1	-1.01	under 3300 nuclei; migration not judged	0.61	3065	inactive
RHOV	0.39	migration z between -2 and 2; enough cells	0.88	5933	inactive
AASS	0	migration z between -2 and 2; enough cells	0.8	6262	inactive
CSNK2B	-1.77	migration z between -2 and 2; enough cells	0.46	3900	inactive
UBE2J1	0.73	migration z between -2 and 2; enough cells	0.94	4823	inactive
RAB20	0.99	migration z between -2 and 2; enough cells	1	6936	inactive
SAMD13	-0.58	migration z between -2 and 2; enough cells	0.74	5599	inactive
B3GALT6	-1.29	migration z between -2 and 2; enough cells	0.55	5823	inactive
SPACA5B	0.02	migration z between -2 and 2; enough cells	0.89	6055	inactive
GMNN	0.87	migration z between -2 and 2; enough cells	1.12	6468	inactive
NIPA1	-2.54	under 3300 nuclei; migration not judged	0.24	3010	inactive
PALMD	-0.8	migration z between -2 and 2; enough cells	0.68	6566	inactive
FBXW10	-0.8	migration z between -2 and 2; enough cells	0.65	5417	inactive
OR8B12	0.5	migration z between -2 and 2; enough cells	1.02	5392	inactive
IKZF3	0.18	migration z between -2 and 2; enough cells	0.84	6931	inactive
MBD6	0.85	migration z between -2 and 2; enough cells	1.1	6726	inactive
TONSL	-0.86	migration z between -2 and 2; enough cells	0.66	6578	inactive
LAMB4	-0.15	migration z between -2 and 2; enough cells	0.84	5933	inactive
NOS3	-1.38	migration z between -2 and 2; enough cells	0.54	6579	inactive
ABTB1	-0.34	migration z between -2 and 2; enough cells	0.74	5752	inactive
MRPL41	-0.97	migration z between -2 and 2; enough cells	0.64	5596	inactive
POPDC1	0.42	migration z between -2 and 2; enough cells	0.99	7233	inactive
VHL	0.09	migration z between -2 and 2; enough cells	0.91	5675	inactive
APLNR	0.93	migration z between -2 and 2; enough cells	0.99	4571	inactive
UBR5	1.4	migration z between -2 and 2; enough cells	1.07	5220	inactive
TRPV2	-1.29	migration z between -2 and 2; enough cells	0.55	4798	inactive
AFP	-0.68	migration z between -2 and 2; enough cells	0.68	4390	inactive
ADGRB1	0.7	migration z between -2 and 2; enough cells	0.94	7156	inactive
TFAP2E	-1.92	migration z between -2 and 2; enough cells	0.39	5644	inactive
SNRNP27	-0.86	migration z between -2 and 2; enough cells	0.64	5237	inactive
ZSCAN16	0.09	migration z between -2 and 2; enough cells	0.91	4892	inactive
FST	0.32	migration z between -2 and 2; enough cells	0.97	5744	inactive
TXNDC8	-0.26	migration z between -2 and 2; enough cells	0.76	5709	inactive
NDUFA8	-2.54	migration z below -2; enough cells	0.32	3882	active
RAD23B	-0.13	migration z between -2 and 2; enough cells	0.78	3682	inactive
AARD	0.92	migration z between -2 and 2; enough cells	1.12	5677	inactive
MTRR	-0.78	migration z between -2 and 2; enough cells	0.66	4164	inactive
IL19	-0.49	migration z between -2 and 2; enough cells	0.76	5387	inactive
CDC6	-0.94	migration z between -2 and 2; enough cells	0.64	6308	inactive
MRPS2	0.02	migration z between -2 and 2; enough cells	0.89	4908	inactive
INA	1.04	migration z between -2 and 2; enough cells	1.15	5970	inactive
ZNF503	-0.41	migration z between -2 and 2; enough cells	0.78	6328	inactive
ELF3	0.36	migration z between -2 and 2; enough cells	0.88	4188	inactive
SLC9C2	0.42	migration z between -2 and 2; enough cells	0.88	5029	inactive
CCAR1	-1.41	migration z between -2 and 2; enough cells	0.52	5249	inactive

Ordered by “migration relative to mock” (descending): some entries from above
Gene	migration robust z-score	migration class with cell-count check	migration relative to mock	nuclei per well, duplicate mean	Call
MBD6	0.85	migration z between -2 and 2; enough cells	1.1	6726	inactive
OR8B12	0.5	migration z between -2 and 2; enough cells	1.02	5392	inactive
IKZF3	0.18	migration z between -2 and 2; enough cells	0.84	6931	inactive
TONSL	-0.86	migration z between -2 and 2; enough cells	0.66	6578	inactive
FBXW10	-0.8	migration z between -2 and 2; enough cells	0.65	5417	inactive
